# The supplement of paper PMC8728848
# The list shows a part of the results.
# B1: CD23 (Homo sapiens) (protein)
# chain: MELQVSSGFVCNTCPEKWINFQRKCYYFGKGTKQWVHARYACDDMEGQLVSIHSPEEQDFLTKRASHTGSWIGLRNLDLKGEFIWVDGSHVDYSNWAPGEPTSRSQSEDCVMMRGSGRWNDAFCDRKLGAWVCDRLATCTPPASEGSAESMGPDSRPDPDGRLPTPSAPLHS
# Experiments:
# Test in all cases: glycan array binding signal (z-score within array); higher = stronger binding
# Details in all cases: glycan notation: IUPAC condensed, linker removed; mutation: H213R,G256S
# [1] = biological target: GlcNAc(b1-4)[GlcNAc(b1-6)]GalNAc
# Method in brief: (§1)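 Columns mapping to the same glycan were averaged after glycan names were converted to IUPAC-condensed notation. The data come from 3228 arrays in the Consortium for Functional Glycomics database, limited to those with an available protein sequence. Binding is reported as a within-array Z-score averaged across arrays of one protein sequence and across linkers.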
# [2] = biological target: GlcNAc(b1-6)Gal(b1-4)GlcNAc
# Method in brief: as §1
# GlcNAc(b1-6)GalNAc = biological target: GlcNAc(b1-6)GalNAc
# Method in brief: as §1
# Kdn(a2-3)Gal(b1-3)GlcNAc = biological target: Kdn(a2-3)Gal(b1-3)GlcNAc
# Method in brief: as §1
# Kdn(a2-3)Gal(b1-4)GlcNAc = biological target: Kdn(a2-3)Gal(b1-4)GlcNAc
# Method in brief: as §1
# [3] = biological target: Man(a1-2)Man(a1-2)Man(a1-3)Man
# Method in brief: as §1
# [4] = biological target: Man(a1-2)Man(a1-2)Man(a1-6)[Man(a1-3)]Man
# Method in brief: as §1
# Man(a1-2)Man(a1-3)Man = biological target: Man(a1-2)Man(a1-3)Man
# Method in brief: as §1
# [5] = biological target: Man(a1-2)Man(a1-3)[Man(a1-2)Man(a1-6)]Man
# Method in brief: as §1
# [6] = biological target: Man(a1-2)Man(a1-3)[Man(a1-2)Man(a1-6)]Man(a1-6)[Man(a1-2)Man(a1-2)Man(a1-3)]Man(b1-4)GlcNAc(b1-4)GlcNAc
# Method in brief: as §1
# [7] = biological target: Man(a1-2)Man(a1-3)[Man(a1-2)Man(a1-6)]Man(a1-6)[Man(a1-3)[Man(a1-6)]Man(a1-6)]Man(b1-4)GlcNAc(b1-4)GlcNAc
# Method in brief: as §1
# [8] = biological target: Man(a1-2)Man(a1-3)[Man(a1-6)]Man(a1-6)[Man(a1-2)Man(a1-3)]Man(b1-4)GlcNAc(b1-4)GlcNAc
# Method in brief: as §1
# [9] = biological target: Man(a1-2)Man(a1-6)[Man(a1-3)]Man(a1-6)[Man(a1-2)Man(a1-2)Man(a1-3)]Man(b1-4)GlcNAc(b1-4)GlcNAc
# Method in brief: as §1
# Man(a1-3)[Man(a1-6)]Man = biological target: Man(a1-3)[Man(a1-6)]Man
# Method in brief: as §1
# [10] = biological target: Man(a1-3)[Man(a1-6)]Man(a1-6)[Man(a1-3)]Man(b1-4)GlcNAc(b1-4)GlcNAc
# Method in brief: as §1
# [11] = biological target: Man(a1-3)[Man(a1-6)]Man(b1-4)GlcNAc(b1-4)GlcNAc
# Method in brief: as §1
# Man(b1-4)GlcNAc = biological target: Man(b1-4)GlcNAc
# Method in brief: as §1
# Neu5Ac(a2-3)Gal = biological target: Neu5Ac(a2-3)Gal
# Method in brief: as §1
# [12] = biological target: Neu5Ac(a2-3)Gal(b1-3)GalNAc
# Method in brief: as §1
# [13] = biological target: Neu5Ac(a2-3)Gal(b1-3)GalNAc(b1-3)Gal(a1-4)Gal(b1-4)Glc
# Method in brief: as §1
# [14] = biological target: Neu5Ac(a2-3)Gal(b1-3)GalNAc(b1-3)Gal(b1-4)GlcNAc
# Method in brief: as §1
# [15] = biological target: Neu5Ac(a2-3)Gal(b1-3)GalNAc(b1-4)[Neu5Ac(a2-3)]Gal(b1-4)Glc
# Method in brief: as §1
# [16] = biological target: Neu5Ac(a2-3)Gal(b1-3)GalNAc6S
# Method in brief: as §1
# [17] = biological target: Neu5Ac(a2-3)Gal(b1-3)GlcNAc
# Method in brief: as §1
# [18] = biological target: Neu5Ac(a2-3)Gal(b1-3)GlcNAc(b1-3)Gal(b1-3)GlcNAc
# Method in brief: as §1
# [19] = biological target: Neu5Ac(a2-3)Gal(b1-3)GlcNAc6S
# Method in brief: as §1
# [20] = biological target: Neu5Ac(a2-3)Gal(b1-3)[Fuc(a1-4)]GlcNAc
# Method in brief: as §1
# [21] = biological target: Neu5Ac(a2-3)Gal(b1-3)[Fuc(a1-4)]GlcNAc(b1-3)Gal(b1-4)[Fuc(a1-3)]GlcNAc
# Method in brief: as §1
# [22] = biological target: Neu5Ac(a2-3)Gal(b1-3)[Neu5Ac(a2-3)Gal(b1-4)]GlcNAc
# Method in brief: as §1
# [23] = biological target: Neu5Ac(a2-3)Gal(b1-3)[Neu5Ac(a2-6)]GalNAc
# Method in brief: as §1
# Neu5Ac(a2-3)Gal(b1-4)Glc = biological target: Neu5Ac(a2-3)Gal(b1-4)Glc
# Method in brief: as §1
# [24] = biological target: Neu5Ac(a2-3)Gal(b1-4)GlcNAc
# Method in brief: as §1
# [25] = biological target: Neu5Ac(a2-3)Gal(b1-4)GlcNAc(b1-3)Gal(b1-3)GlcNAc
# Method in brief: as §1
# [26] = biological target: Neu5Ac(a2-3)Gal(b1-4)GlcNAc(b1-3)Gal(b1-4)GlcNAc
# Method in brief: as §1
# [27] = biological target: Neu5Ac(a2-3)Gal(b1-4)GlcNAc(b1-3)Gal(b1-4)GlcNAc(b1-3)Gal(b1-4)GlcNAc
# Method in brief: as §1
# [28] = biological target: Neu5Ac(a2-3)Gal(b1-4)GlcNAc(b1-3)Gal(b1-4)[Fuc(a1-3)]GlcNAc
# Method in brief: as §1
# [29] = biological target: Neu5Ac(a2-3)Gal(b1-4)GlcNAc(b1-6)[Gal(b1-3)]GalNAc
# Method in brief: as §1
# [30] = biological target: Neu5Ac(a2-3)Gal(b1-4)GlcNAc6S
# Method in brief: as §1
# [31] = biological target: Neu5Ac(a2-3)Gal(b1-4)[Fuc(a1-3)]GlcNAc
# Method in brief: as §1
# [32] = biological target: Neu5Ac(a2-3)Gal(b1-4)[Fuc(a1-3)]GlcNAc(b1-3)Gal
# Method in brief: as §1
# [33] = biological target: Neu5Ac(a2-3)Gal(b1-4)[Fuc(a1-3)]GlcNAc(b1-3)Gal(b1-4)GlcNAc
# Method in brief: as §1
# [34] = biological target: Neu5Ac(a2-3)Gal(b1-4)[Fuc(a1-3)]GlcNAc(b1-3)Gal(b1-4)[Fuc(a1-3)]GlcNAc(b1-3)Gal(b1-4)[Fuc(a1-3)]GlcNAc
# Method in brief: as §1
# [35] = biological target: Neu5Ac(a2-3)Gal(b1-4)[Fuc(a1-3)]GlcNAc6S
# Method in brief: as §1
# [36] = biological target: Neu5Ac(a2-3)Gal6S(b1-4)GlcNAc
# Method in brief: as §1
# [37] = biological target: Neu5Ac(a2-3)Gal6S(b1-4)[Fuc(a1-3)]GlcNAc
# Method in brief: as §1
binder,measurement,setting,value
B1,glycan array binding signal (z-score),[1],0.011
same,glycan array binding signal (z-score),[2],-0.195
same,glycan array binding signal (z-score),GlcNAc(b1-6)GalNAc,-0.3
same,glycan array binding signal (z-score),Kdn(a2-3)Gal(b1-3)GlcNAc,-0.218
same,glycan array binding signal (z-score),Kdn(a2-3)Gal(b1-4)GlcNAc,-0.386
same,glycan array binding signal (z-score),[3],-0.197
same,glycan array binding signal (z-score),[4],-0.249
same,glycan array binding signal (z-score),Man(a1-2)Man(a1-3)Man,-0.188
same,glycan array binding signal (z-score),[5],0.012
same,glycan array binding signal (z-score),[6],0.376
same,glycan array binding signal (z-score),[7],0.286
same,glycan array binding signal (z-score),[8],0.052
same,glycan array binding signal (z-score),[9],-0.209
same,glycan array binding signal (z-score),Man(a1-3)[Man(a1-6)]Man,-0.181
same,glycan array binding signal (z-score),[10],-0.063
same,glycan array binding signal (z-score),[11],-0.791
same,glycan array binding signal (z-score),Man(b1-4)GlcNAc,-0.401
same,glycan array binding signal (z-score),Neu5Ac(a2-3)Gal,0.147
same,glycan array binding signal (z-score),[12],-0.283
same,glycan array binding signal (z-score),[13],-0.401
same,glycan array binding signal (z-score),[14],-0.047
same,glycan array binding signal (z-score),[15],-0.497
same,glycan array binding signal (z-score),[16],-0.138
same,glycan array binding signal (z-score),[17],-0.322
same,glycan array binding signal (z-score),[18],0.196
same,glycan array binding signal (z-score),[19],-0.362
same,glycan array binding signal (z-score),[20],-0.068
same,glycan array binding signal (z-score),[21],-0.341
same,glycan array binding signal (z-score),[22],-0.301
same,glycan array binding signal (z-score),[23],-0.178
same,glycan array binding signal (z-score),Neu5Ac(a2-3)Gal(b1-4)Glc,-0.478
same,glycan array binding signal (z-score),[24],-0.511
same,glycan array binding signal (z-score),[25],0.097
same,glycan array binding signal (z-score),[26],-0.234
same,glycan array binding signal (z-score),[27],-0.45
same,glycan array binding signal (z-score),[28],-0.404
same,glycan array binding signal (z-score),[29],-0.122
same,glycan array binding signal (z-score),[30],0.044
same,glycan array binding signal (z-score),[31],0.174
same,glycan array binding signal (z-score),[32],-0.209
same,glycan array binding signal (z-score),[33],0.869
same,glycan array binding signal (z-score),[34],0.004
same,glycan array binding signal (z-score),[35],-0.281
same,glycan array binding signal (z-score),[36],0.094
same,glycan array binding signal (z-score),[37],-0.309

# 2 entries picked at random from those above, as already listed:
binder,measurement,setting,value
B1,glycan array binding signal (z-score),Kdn(a2-3)Gal(b1-4)GlcNAc,-0.386
same,glycan array binding signal (z-score),[13],-0.401
